According to publication PMC8384837:
Positions count from the first letter of the chain named. The list shows a part of the results. For some assays here: At the low end of the ranking the order means little.

What was measured:
Details in all cases: yeast three-hybrid, YBZ-1, SC-Leu-His + 0.5 mM 3-AT, 4 days
[1] = biological target: T1, PUM1 PUF domain R6-AYR N1043A + Q1047R (UniProt Q14671)
T1 sequence: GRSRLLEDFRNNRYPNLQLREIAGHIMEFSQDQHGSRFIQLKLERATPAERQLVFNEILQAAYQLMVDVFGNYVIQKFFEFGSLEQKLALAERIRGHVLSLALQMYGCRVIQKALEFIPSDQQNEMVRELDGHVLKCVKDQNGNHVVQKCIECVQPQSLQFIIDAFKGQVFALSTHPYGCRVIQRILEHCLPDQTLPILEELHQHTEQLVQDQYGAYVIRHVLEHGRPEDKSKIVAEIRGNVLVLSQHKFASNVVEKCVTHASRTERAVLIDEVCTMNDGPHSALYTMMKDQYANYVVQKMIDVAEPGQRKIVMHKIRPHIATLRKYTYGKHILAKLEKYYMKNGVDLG

[2] = biological target: T2, PUM1 PUF domain R6-CYR N1043C + Q1047R (UniProt Q14671)
T2 sequence: T1 sequence with A216C

[3] = biological target: T3, PUM1 PUF domain R6-DFQ N1043D + Y1044F (UniProt Q14671)
T3 sequence: T1 sequence with A216D, Y217F, R220Q

[4] = biological target: T4, PUM1 PUF domain R6-DWI N1043D + Y1044W + Q1047I (UniProt Q14671)
T4 sequence: T1 sequence with A216D, Y217W, R220I

[5] = biological target: T5, PUM1 PUF domain R6-DYQ N1043D (UniProt Q14671)
T5 sequence: T1 sequence with A216D, R220Q

[6] = biological target: T6, PUM1 PUF domain R6-EWL N1043E + Y1044W + Q1047L (UniProt Q14671)
T6 sequence: T1 sequence with A216E, Y217W, R220L

[7] = biological target: T7, PUM1 PUF domain R6-IYK N1043I + Q1047K (UniProt Q14671)
T7 sequence: T1 sequence with A216I, R220K

[8] = biological target: T8, PUM1 PUF domain R6-KWA N1043K + Y1044W + Q1047A (UniProt Q14671)
T8 sequence: T1 sequence with A216K, Y217W, R220A

[9] = biological target: T9, PUM1 PUF domain R6-KWQ N1043K + Y1044W (UniProt Q14671)
T9 sequence: T1 sequence with A216K, Y217W, R220Q

[10] = biological target: T10, PUM1 PUF domain R6-NHR Y1044H + Q1047R (UniProt Q14671)
T10 sequence: T1 sequence with A216N, Y217H

[11] = biological target: T11, PUM1 PUF domain R6-QRQ N1043Q + Y1044R (UniProt Q14671)
T11 sequence: T1 sequence with A216Q, Y217R, R220Q

[12] = biological target: T12, PUM1 PUF domain R6-RRE N1043R + Y1044R + Q1047E (Homo sapiens) (UniProt Q14671)
T12 sequence: T1 sequence with A216R, Y217R, R220E

[13] = biological target: T13, PUM1 PUF domain R6-RWG N1043R + Y1044W + Q1047G (Homo sapiens) (UniProt Q14671)
T13 sequence: T1 sequence with A216R, Y217W, R220G

[14] = biological target: T14, PUM1 PUF domain R6-TWK N1043T + Y1044W + Q1047K (UniProt Q14671)
T14 sequence: T1 sequence with A216T, Y217W, R220K

[15] = biological target: T15, PUM1 PUF domain R6-TWQ N1043T + Y1044W (UniProt Q14671)
T15 sequence: T1 sequence with A216T, Y217W, R220Q

[16] = biological target: T16, PUM1 PUF domain R6-VFH N1043V + Y1044F + Q1047H (UniProt Q14671)
T16 sequence: T1 sequence with A216V, Y217F, R220H

[17] = biological target: T17, PUM1 PUF domain R6-VFQ N1043V + Y1044F (UniProt Q14671)
T17 sequence: T1 sequence with A216V, Y217F, R220Q

[18] = biological target: T18, PUM1 PUF domain R6-YWL N1043Y + Y1044W + Q1047L (UniProt Q14671)
T18 sequence: T1 sequence with A216Y, Y217W, R220L

[19] = biological target: T19, PUM1 PUF domain R6-YWR N1043Y + Y1044W + Q1047R (UniProt Q14671)
T19 sequence: T1 sequence with A216Y, Y217W

[20] = biological target: T20, PUM1 PUF domain R6-YWV N1043Y + Y1044W + Q1047V (UniProt Q14671)
T20 sequence: T1 sequence with A216Y, Y217W, R220V

Sequence: GGCUAGAACUAGUGGAUCCCCCGGCGCCCGGCGGCUCGAGCCCGGGUAAGUGGAAAUAGUCUGCAUGCCGCCGGGCGCCAUGCCUGCAGGUCGACUCUAGAAAACAUG
- binding signal (log2 enrichment (interaction score)) [1]: -5.67
- binding signal (log2 enrichment (interaction score)) [2]: -3.83
- binding signal (log2 enrichment (interaction score)) [3]: -5.47
- binding signal (log2 enrichment (interaction score)) [4]: -5.35
- binding signal (log2 enrichment (interaction score)) [5]: -4.73
- binding signal (log2 enrichment (interaction score)) [6]: -5.25
- binding signal (log2 enrichment (interaction score)) [7]: -4.39
- binding signal (log2 enrichment (interaction score)) [8]: -3.9
- binding signal (log2 enrichment (interaction score)) [9]: -3.11
- binding signal (log2 enrichment (interaction score)) [10]: -5.83
- binding signal (log2 enrichment (interaction score)) [11]: -4.21
- binding signal (log2 enrichment (interaction score)) [12]: -5.36
- binding signal (log2 enrichment (interaction score)) [13]: -0.05
- binding signal (log2 enrichment (interaction score)) [14]: -4.49
- binding signal (log2 enrichment (interaction score)) [15]: -4.2
- binding signal (log2 enrichment (interaction score)) [16]: -5.8
- binding signal (log2 enrichment (interaction score)) [17]: -6.16
- binding signal (log2 enrichment (interaction score)) [18]: -6.89
- binding signal (log2 enrichment (interaction score)) [19]: < -7.57
- binding signal (log2 enrichment (interaction score)) [20]: < -8.1
